Experimental data as given in patent publication US20170290886.
For at least one entry, the source does not settle the construct or the ends of the probe. Where cells or extracts were used, other partners may take part.

Protein sequences, listed by entry. Tags and fused reporters are not part of them. Lines headed by an entry give the natural chain unless they say otherwise; changes in a name come on top.
UniProt P15337: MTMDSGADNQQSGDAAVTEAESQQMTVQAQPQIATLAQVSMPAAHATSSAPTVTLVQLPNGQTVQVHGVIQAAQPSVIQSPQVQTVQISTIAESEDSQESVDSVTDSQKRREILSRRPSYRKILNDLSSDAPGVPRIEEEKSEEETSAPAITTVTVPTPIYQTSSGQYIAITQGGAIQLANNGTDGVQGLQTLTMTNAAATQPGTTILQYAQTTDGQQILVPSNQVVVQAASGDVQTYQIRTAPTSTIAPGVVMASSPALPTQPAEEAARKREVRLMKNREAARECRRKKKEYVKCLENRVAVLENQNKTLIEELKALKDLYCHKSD

Molecular target: CREB (Rattus norvegicus) (UniProt P15337)
Assay: pull-down
Details: increased by MeCP2 WT and further by MeCP2-SUMO1 fusion, decreased by MeCP2 K412R transfection; poly dI-dC, 4 C; protein in an extract; protein details: endogenous, hippocampal CA1 lysate; label: 5' biotin on sense strand

“AGAGATTGCCTGACGTCAGAGAGCTAGGATTGCCTGACGTCAGAGAGCTAG (double strand) [2x CRE oligo]”: binds.
